Laboratory results taken from the supplement of paper PMC8728848.
Some of the results follow.

Assays:
Assay in all cases: glycan array binding signal (z-score within array); higher = stronger binding
Conditions in all cases: glycan notation: IUPAC condensed, linker removed
[1] = target: Fuc(a1-2)[GalNAc(a1-3)]Gal(b1-4)GlcNAc(b1-3)Gal(b1-4)GlcNAc
Summary of the method: (§1)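 Arrays were curated from the Consortium for Functional Glycomics database, 3228 in total, and kept only where the protein sequence was available. Binding is expressed as a within-array Z-score. This score was averaged across arrays of the same protein sequence at different concentrations or buffers and across linkers, and negative values can be read as non-binding.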

[2] = target: Fuc(a1-2)[GalNAc(a1-3)]Gal(b1-4)GlcNAc(b1-3)Gal(b1-4)GlcNAc(b1-3)Gal(b1-4)GlcNAc
Summary of the method: as §1

[3] = target: Fuc(a1-2)[GalNAc(a1-3)]Gal(b1-4)[Fuc(a1-3)]GlcNAc
Summary of the method: as §1

[4] = target: Fuc(a1-2)[GalNAc(a1-4)]Gal(b1-4)GlcNAc
Summary of the method: as §1

[5] = target: Fuc(a1-2)[GalNAc(b1-3)]Gal
Summary of the method: as §1

Fuc(a1-3)GlcNAc = target: Fuc(a1-3)GlcNAc
Summary of the method: as §1

[6] = target: Fuc(a1-3)[Gal(b1-4)]Glc6S
Summary of the method: as §1

[7] = target: Fuc(a1-3)[Gal(b1-4)]GlcNAc
Summary of the method: as §1

[8] = target: Fuc(a1-3)[Gal(b1-4)]GlcNAc(b1-2)Man(a1-3)[Fuc(a1-3)[Gal(b1-4)]GlcNAc(b1-2)Man(a1-6)]Man(b1-4)GlcNAc(b1-4)GlcNAc
Summary of the method: as §1

[9] = target: Fuc(a1-3)[Gal(b1-4)]GlcNAc(b1-3)Gal(b1-3)[Fuc(a1-4)]GlcNAc
Summary of the method: as §1

[10] = target: Fuc(a1-3)[Gal(b1-4)]GlcNAc(b1-3)GalNAc
Summary of the method: as §1

[11] = target: Fuc(a1-3)[Gal(b1-4)]GlcNAc(b1-4)Gal(b1-4)[Fuc(a1-3)]GlcNAc
Summary of the method: as §1

[12] = target: Fuc(a1-3)[Gal(b1-4)]GlcNAc(b1-4)Gal(b1-4)[Fuc(a1-3)]GlcNAc(b1-4)Gal(b1-4)[Fuc(a1-3)]GlcNAc
Summary of the method: as §1

[13] = target: Fuc(a1-3)[Gal(b1-4)]GlcNAc(b1-6)[Gal(b1-3)GlcNAc(b1-3)]Gal(b1-4)Glc
Summary of the method: as §1

[14] = target: Fuc(a1-3)[Gal(b1-4)]GlcNAc6S
Summary of the method: as §1

[15] = target: Fuc(a1-3)[Gal3S(b1-4)]GlcNAc
Summary of the method: as §1

[16] = target: Fuc(a1-3)[Gal3S(b1-4)]GlcNAc6S
Summary of the method: as §1

[17] = target: Fuc(a1-3)[GalNAc(b1-4)]GlcNAc
Summary of the method: as §1

Fuc(a1-4)GlcNAc = target: Fuc(a1-4)GlcNAc
Summary of the method: as §1

Fuc(b1-3)GlcNAc = target: Fuc(b1-3)GlcNAc
Summary of the method: as §1

Gal(a1-2)Gal = target: Gal(a1-2)Gal
Summary of the method: as §1

Gal(a1-3)Gal = target: Gal(a1-3)Gal
Summary of the method: as §1

Gal(a1-3)Gal(b1-3)GlcNAc = target: Gal(a1-3)Gal(b1-3)GlcNAc
Summary of the method: as §1

[18] = target: Gal(a1-3)Gal(b1-3)GlcNAc(b1-2)Man(a1-3)[Gal(a1-3)Gal(b1-3)GlcNAc(b1-2)Man(a1-6)]Man(b1-4)GlcNAc(b1-4)GlcNAc
Summary of the method: as §1

[19] = target: Gal(a1-3)Gal(b1-3)[Fuc(a1-4)]GlcNAc(b1-2)Man(a1-3)[Gal(a1-3)Gal(b1-3)[Fuc(a1-4)]GlcNAc(b1-2)Man(a1-6)]Man(b1-4)GlcNAc(b1-4)GlcNAc
Summary of the method: as §1

Gal(a1-3)Gal(b1-4)Glc = target: Gal(a1-3)Gal(b1-4)Glc
Summary of the method: as §1

Gal(a1-3)Gal(b1-4)GlcNAc = target: Gal(a1-3)Gal(b1-4)GlcNAc
Summary of the method: as §1

[20] = target: Gal(a1-3)Gal(b1-4)GlcNAc(b1-3)GalNAc
Summary of the method: as §1

[21] = target: Gal(a1-3)Gal(b1-4)[Fuc(a1-3)]GlcNAc
Summary of the method: as §1

[22] = target: Gal(a1-3)Gal(b1-4)[Fuc(a1-3)]GlcNAc(b1-2)Man(a1-3)[Gal(a1-3)Gal(b1-4)[Fuc(a1-3)]GlcNAc(b1-2)Man(a1-6)]Man(b1-4)GlcNAc(b1-4)GlcNAc
Summary of the method: as §1

Gal(a1-3)GalNAc = target: Gal(a1-3)GalNAc
Summary of the method: as §1

[23] = target: Gal(a1-3)[Gal(a1-4)]Gal(b1-4)GlcNAc
Summary of the method: as §1

[24] = target: Gal(a1-4)Gal(b1-3)GlcNAc(b1-2)Man(a1-3)[Gal(a1-4)Gal(b1-3)GlcNAc(b1-2)Man(a1-6)]Man(b1-4)GlcNAc(b1-4)GlcNAc
Summary of the method: as §1

Gal(a1-4)Gal(b1-4)Glc = target: Gal(a1-4)Gal(b1-4)Glc
Summary of the method: as §1

Gal(a1-4)Gal(b1-4)GlcNAc = target: Gal(a1-4)Gal(b1-4)GlcNAc
Summary of the method: as §1

[25] = target: Gal(a1-4)Gal(b1-4)GlcNAc(b1-2)Man(a1-3)[Gal(a1-4)Gal(b1-4)GlcNAc(b1-2)Man(a1-6)]Man(b1-4)GlcNAc(b1-4)GlcNAc
Summary of the method: as §1

[26] = target: Gal(a1-4)Gal(b1-4)GlcNAc(b1-3)Gal(b1-4)Glc
Summary of the method: as §1

Gal(a1-4)GlcNAc = target: Gal(a1-4)GlcNAc
Summary of the method: as §1

Gal(a1-6)Glc = target: Gal(a1-6)Glc
Summary of the method: as §1

Gal(b1-2)Gal = target: Gal(b1-2)Gal
Summary of the method: as §1

Gal(b1-3)Gal = target: Gal(b1-3)Gal
Summary of the method: as §1

Gal(b1-3)Gal(b1-4)GlcNAc = target: Gal(b1-3)Gal(b1-4)GlcNAc
Summary of the method: as §1

[27] = target: Gal(b1-3)Gal(b1-4)GlcNAc(b1-2)Man(a1-3)[Gal(b1-3)Gal(b1-4)GlcNAc(b1-2)Man(a1-6)]Man(b1-4)GlcNAc(b1-4)GlcNAc
Summary of the method: as §1

Gal(b1-3)GalNAc = target: Gal(b1-3)GalNAc
Summary of the method: as §1

[28] = target: Gal(b1-3)GalNAc(a1-3)[Fuc(a1-2)]Gal(b1-4)Glc
Summary of the method: as §1

B1: SRS2 (Toxoplasma gondii), O15695 (protein)
chain: MATRASLARQKTGAACLAVLTASPSVVAAKPWKRWVGVSVILASAFAVGVSAGPPYRYEPEKFTCRPKKGILSQWVSLLYQVQHNITFACEEATPVPTTLISEEHGLMVCAENMTPEECEANPAPLSAFLPGATKEWVTGDSVLTGLKISVPESQYPANAKSFRVGCRHNTKTGNTCMLTIHVEPRDPAVERQEARCSYTENSTLPKIFVTKDSNTMTLACGPHGAPMPESYTENYCSTPDTCDEKPFTSVIPGYLSKWFFGDPKSPLGARVRIPPEQIPSSPQINYFGCTGPTEGEGPKYNCTVPVPLGGGDPSEGSRPGGGSGGGKRGGGQGGGGSLAGFDFRQGSARHSLPSRMALSASALLAMTALAY
For B1, which “glycan array binding signal (z-score)” value [1] is on record?
The value was 0.358.

What about the “glycan array binding signal (z-score)” value [2] of the same binder?
Its value is 0.391.

And the “glycan array binding signal (z-score)” value [3]?
The value was 0.593.

And the “glycan array binding signal (z-score)” value [4]?
The value was -0.836.

What about the “glycan array binding signal (z-score)” value [5] of the same binder?
Its value is 0.074.

And the “glycan array binding signal (z-score)” value (Fuc(a1-3)GlcNAc)?
The value was 0.522.

And the “glycan array binding signal (z-score)” value [6]?
Its value is -0.341.

What about the “glycan array binding signal (z-score)” value [7] of the same binder?
The value was -0.537.

What about the “glycan array binding signal (z-score)” value [8] of the same binder?
The value was 0.213.

And the “glycan array binding signal (z-score)” value [9]?
The value was 0.945.

And the “glycan array binding signal (z-score)” value [10]?
The value was 0.176.

What about the “glycan array binding signal (z-score)” value [11] of the same binder?
The value was -0.27.

And the “glycan array binding signal (z-score)” value [12]?
Its value is -0.821.

And the “glycan array binding signal (z-score)” value [13]?
The value was -0.834.

What about the “glycan array binding signal (z-score)” value [14] of the same binder?
Its value is 0.562.

What about the “glycan array binding signal (z-score)” value [15] of the same binder?
Its value is 0.388.

And the “glycan array binding signal (z-score)” value [16]?
The value was -0.197.

What about the “glycan array binding signal (z-score)” value [17] of the same binder?
The value was 0.377.

And the “glycan array binding signal (z-score)” value (Fuc(a1-4)GlcNAc)?
The value was -0.086.

And the “glycan array binding signal (z-score)” value (Fuc(b1-3)GlcNAc)?
Its value is 0.872.

And the “glycan array binding signal (z-score)” value (Gal(a1-2)Gal)?
The value was -0.741.

What about the “glycan array binding signal (z-score)” value (Gal(a1-3)Gal) of the same binder?
Its value is -0.417.

What about the “glycan array binding signal (z-score)” value (Gal(a1-3)Gal(b1-3)GlcNAc) of the same binder?
The value was 0.384.

What about the “glycan array binding signal (z-score)” value [18] of the same binder?
The value was 0.538.

And the “glycan array binding signal (z-score)” value [19]?
The value was 0.688.

And the “glycan array binding signal (z-score)” value (Gal(a1-3)Gal(b1-4)Glc)?
Its value is -0.428.

And the “glycan array binding signal (z-score)” value (Gal(a1-3)Gal(b1-4)GlcNAc)?
The value was 0.159.

What about the “glycan array binding signal (z-score)” value [20] of the same binder?
The value was -0.46.

And the “glycan array binding signal (z-score)” value [21]?
The value was -0.99.

What about the “glycan array binding signal (z-score)” value [22] of the same binder?
The value was -0.148.

What about the “glycan array binding signal (z-score)” value (Gal(a1-3)GalNAc) of the same binder?
The value was 0.369.

What about the “glycan array binding signal (z-score)” value [23] of the same binder?
Its value is 0.045.

And the “glycan array binding signal (z-score)” value [24]?
Its value is -0.744.

And the “glycan array binding signal (z-score)” value (Gal(a1-4)Gal(b1-4)Glc)?
The value was 0.631.

What about the “glycan array binding signal (z-score)” value (Gal(a1-4)Gal(b1-4)GlcNAc) of the same binder?
The value was -0.049.

What about the “glycan array binding signal (z-score)” value [25] of the same binder?
The value was -0.206.

And the “glycan array binding signal (z-score)” value [26]?
The value was -0.291.

And the “glycan array binding signal (z-score)” value (Gal(a1-4)GlcNAc)?
Its value is 0.399.

What about the “glycan array binding signal (z-score)” value (Gal(a1-6)Glc) of the same binder?
Its value is -0.257.

What about the “glycan array binding signal (z-score)” value (Gal(b1-2)Gal) of the same binder?
Its value is 0.077.

And the “glycan array binding signal (z-score)” value (Gal(b1-3)Gal)?
Its value is -0.894.

And the “glycan array binding signal (z-score)” value (Gal(b1-3)Gal(b1-4)GlcNAc)?
Its value is -1.45.

What about the “glycan array binding signal (z-score)” value [27] of the same binder?
The value was 0.158.

And the “glycan array binding signal (z-score)” value (Gal(b1-3)GalNAc)?
The value was -0.265.

What about the “glycan array binding signal (z-score)” value [28] of the same binder?
Its value is 0.487.
